The text below walks through data of article PMC10936178 (mBio, 2024).

Results are given in words; binding and its absence hold for the method and conditions named.

This experiment deals with full-length Plasmodium vivax Sub1 (PvS1FL), recombinant, autocleaved at Asp202 (P. vivax) (UniProt E6Y8B9). Put plainly: AUC; sedimentation equilibrium, pH 8 (50 mM Tris pH 8, 150 mM NaCl, 10 mM CaCl2), 20°C, 2, 5 and 10 µM protein, 9,000, 13,000 and 16,000 rpm, single-species model; both purified.

B1: full-length Plasmodium vivax Sub1 (PvS1FL), recombinant, autocleaved at Asp202 (enzyme)
chain 1: GDILPNEGKKEKDDVHKIISELRFLQKVETILESSNMSVSDVEADANAYNPDRDAPKEELQKLQDQQETPSKQPNNLRNSPQKRAEKKESPGKNKKSLRLIVSENHATSPSFFEESLLQEDVVSFIQSKGKLSNLKNLKSMIIDLNSDMTDEELAEYISLLERKGALIESDKLVGAD
chain 2: DVSLASVKDAVRRGESSVNWGKLRSTMLEVPSGESPPSHAASSGSPFDDDDDLLSEAALHREEAHLAGSKTTKGYKFNDEYRNLQWGLDLARLDETQDLINANRVSVTKICVIDSGIDYNHPDLRNNIDVNVKELHGRKGVDDDSNGVVDDVYGANFVNNSGDPMDDNYHGTHVSGIISAVGNNGIGIVGVDGHSKLVICKALDQHKLGRLGDMFKCIDYCISRQAHMINGSFSFDEYSNIFNASVEHLRSLGILFFVSASNCAHDKLSKPDIAKCDLAVNHRYPPILSKTHNNVIAVANLKRDLDESYSLSVNSFYSNIYCQLAAPGTNIYSTTPMNNYRKLNGTSMASPHVAAIASIVRSINPNLTYLQIVEILRNAIVKLPSLTERVSWGGYVDILRAVNLAIDSKAAPYIKSHSWFRWKQGSRR
notes: Prodomain of P. vivax Sub1 up to the primary maturation site Asp202; Catalytic domain of P. vivax Sub1, from the residue after the primary maturation site Asp202 to the C-terminus
Turning to B1, the binding result is “no binding (condition: at pH 8 (2, 5 and 10 µM))”.
